# Laboratory results reported in PubChem BioAssay AID504444 (National Center for Advancing Translational Sciences (NCATS), 2011).
# Hit rate of the full screen: of about 360,000 compounds, about 7,500 (2.1%) were called active. The inconclusive results got no clear call from the source; some entries with a clear call stand among them for comparison. The call rests on the fitted dose curve; in most records, active means well fitted inhibition curve with a large enough effect; inconclusive means small, poorly fitted or top-dose-only effect, or effect the other way; inactive means flat fitted curve, though single readings scatter. Potencies of inconclusive entries are doubtful fits and often do not repeat.
# Experiment: Nrf2 qHTS screen for inhibitors; further: nearly all actives have a fitted effect of over 60% in size
# Details: A549 ARE-Fluc reporter, luciferase luminescence, 18-24 h; series mostly up to 46 µM
# Outline: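 In this cell-based qHTS, ARE-driven firefly luciferase in A549 cells reports Nrf2 activity; the luminescent signal after BugLite lysis is the measured value, with a prior CellTiter-Fluor read for cell health.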
# Potency means the concentration at half of the fitted maximal effect.
row,SMILES,Potency
1,CC(C)CCNC(=O)c1ccccc1SCC(=O)NC1CCCCCCC1,inactive
2,COc1ccc(/C=C/C(=O)NC(=S)NN2CCCCC2c2cccnc2)cc1 (stereo not drawn),"inconclusive: 6.51 µM [falling, full curve, poor fit]"
3,Cc1ccc(NC(=O)Cc2ccc(-n3c(C)nc4cccnc43)cc2)c(Cl)c1,active: 20.6 µM
4,CCOc1ccc(N)cc1OC,inactive
5,COc1ccc(N2CCN(Cc3nc(N)nc(Nc4ccc(C)c(Cl)c4)n3)CC2)cc1,"inconclusive: 29.1 µM [falling, single point]"
6,O=C(NCCc1csc(-c2ccccc2)n1)c1c(F)cccc1Cl,"inconclusive: 20.6 µM [activator, single point]"
7,COc1cc(C2C(C#N)=C(N)Oc3c2ccc2ccccc32)ccc1OCC(=O)Nc1ccccc1C (stereo not drawn),"inconclusive: 16.4 µM [falling, partial curve]"
8,CCc1ccc(NC(=O)N2CCOc3ccc(Cl)cc32)cc1,"inconclusive: 29.1 µM [activator, single point]"
9,O=C(Nc1ccc2c(c1)OCO2)c1cccs1,"inconclusive: 6.51 µM [activator, partial curve]"
10,COc1cccc(C(=O)NCC(c2cccs2)N2CCc3ccccc32)c1 (stereo not drawn),"inconclusive: 16.4 µM [falling, partial curve, poor fit]"
11,CCOc1ccccc1C(=O)OCC(=O)Nc1ccc(OC(F)F)cc1,"inconclusive: 0.731 µM [activator, partial curve, poor fit]"
12,C=CCSc1nnc2c(n1)[nH]c1c(C)cccc12,"inconclusive: 0.231 µM [activator, full curve]"
13,CCOc1ccc(-c2cc(CCCC(=O)Nc3cc(OC)ccc3OC)no2)cc1,"inconclusive: 2.91 µM [falling, full curve, poor fit]"
14,CCN1CCN(c2ccc(NC(=O)c3ccco3)cc2Cl)CC1,"inconclusive: 13 µM [activator, partial curve]"
15,O=C(NCc1ccccc1)c1ccc(CNS(=O)(=O)c2ccc(Br)cc2)cc1,inactive
16,Cc1ccc(Oc2nc(CN3CCOCC3)nc3sc4c(c23)CCC(C)C4)cc1 (stereo not drawn),"inconclusive: 32.6 µM [falling, single point]"
17,CCOc1ccc2[nH]c(=O)c(C(c3nnnn3Cc3ccco3)N3CCN(C)CC3)cc2c1 (stereo not drawn),inactive
18,Cc1ccccc1C(=O)Nc1cccc(-c2ccc3nncn3n2)c1,"inconclusive: 18.4 µM [activator, single point]"
19,N#Cc1cnn2c(N)c(-c3ccc(Cl)cc3)cnc12,"inconclusive: 2.59 µM [falling, partial curve, poor fit]"
20,O=S(=O)(NCC1OCCc2ccccc21)c1ccc(S(=O)(=O)N2CCOCC2)cc1 (stereo not drawn),"inconclusive: 9.2 µM [falling, partial curve, poor fit]"
21,CCOC(=O)CSC1=C(C#N)C(c2ccc(Cl)cc2)C(C(=O)OC)C(=O)N1 (stereo not drawn),"inconclusive: 25.9 µM [falling, partial curve, poor fit]"
22,CC(C)c1nc(N2CCN(C(=O)c3ccco3)CC2)c2c3c(sc2n1)CCCC3,"inconclusive: 11.6 µM [falling, partial curve]"
23,O=C(Nc1cccc([N+](=O)[O-])c1)c1cnccn1,inactive

row,SMILES,Potency
1,Cc1ccc(C)c(N2CCN(S(=O)(=O)c3ccc4[nH]c5c(c4c3)CCCCC5)CC2)c1,inactive
2,Cc1ccc(C(=O)/C=C/Nc2ccc3c(c2)OCO3)cc1,"inconclusive: 6.51 µM [activator, full curve]"
3,O=c1cc(CNc2cc(C(F)(F)F)cc(C(F)(F)F)c2)nc2sccn12,"inconclusive: 25.9 µM [falling, partial curve, poor fit]"
4,Cc1cc(N2CCOCC2)ccc1/C=C\[N+](=O)[O-],inactive
5,CCN(CC)CCOc1ccc2c(c1)C(=NO)c1cc(OCCN(CC)CC)ccc1-2,"inconclusive: 32.6 µM [falling, single point]"
6,O=C(CCN1C(=O)C2C3C=CC(C3)C2C1=O)Nc1ccccn1 (stereo not drawn),"inconclusive: 14.6 µM [activator, partial curve, poor fit]"
7,Oc1ccc(Cl)cc1Cc1cc(Cl)ccc1O,inactive
8,COc1ccc(S(=O)(=O)N2CCC(C(=O)Nc3ccc(Oc4ccccc4)cc3)CC2)cc1,"inconclusive: 3.26 µM [falling, full curve]"
9,Cc1ccc(N(C)S(=O)(=O)c2ccc3c(c2)CCC(=O)N3)cc1C,"inconclusive: 18.4 µM [falling, single point]"
10,COc1ccc(-c2[nH]ncc2CN2CCC(OCc3ccccc3)CC2)c(F)c1,"inconclusive: 20.6 µM [activator, single point]"
11,COc1ccc(Cn2c(C(=O)O)c(CNCc3ccccc3F)c3ccc(OC)cc32)cc1,inactive
12,O=C(CCCN1C(=O)S/C(=C\C=C\c2ccccc2)C1=O)Nc1ccc(O)cc1,"inconclusive: 23.1 µM [falling, single point]"
13,CCN(CCCNC(=O)Cn1ncc2c3ccccc3n(C)c2c1=O)Cc1ccccc1,"inconclusive: 29.1 µM [activator, single point]"
14,O=C1CC(=O)CC(c2ccco2)C1,"inconclusive: 3.26 µM [activator, partial curve, poor fit]"
15,O=C(Nc1cc(-c2nc3cc(Cl)ccc3o2)ccc1Cl)c1ccco1,"inconclusive: 11.6 µM [activator, partial curve]"
16,CC1CCCN(C(=O)CSc2c3c(nc4cc(Cl)ccc24)CCCC3)C1 (stereo not drawn),"inconclusive: 25.9 µM [falling, single point]"
17,Cn1ccnc1SCC(=O)c1c[nH]c2ccccc12,"inconclusive: 5.8 µM [activator, partial curve]"
18,COc1ccc(NC(=O)COc2cccc3c2CCN(C)C3=O)c(OC)c1,"inconclusive: 29.1 µM [falling, partial curve, poor fit]"
19,NC(=O)c1cccc2cc3ccccc3cc12,inactive
20,O=C(O)c1ccc(-c2nc(-c3ccc(Cl)cc3Cl)cs2)cc1,"inconclusive: 3.66 µM [activator, full curve]"
21,COc1ccc(C2=NN(C(C#N)c3ccc(OC)c(OC)c3)C(c3ccccc3)C2)cc1 (stereo not drawn),"inconclusive: 23.1 µM [activator, partial curve]"
22,CCN(CC(=O)Nc1cc(S(=O)(=O)N2CCCCC2)ccc1Cl)Cc1ccccc1,"inconclusive: 16.4 µM [falling, single point]"
23,Cc1ccc(NC(=O)CCSc2nnnn2-c2ccc3c(c2)OCO3)cc1C,"inconclusive: 14.6 µM [falling, partial curve]"

# An excerpt from above in order of count of non-hydrogen atoms, smallest number first.
row,SMILES,Potency
14,O=C1CC(=O)CC(c2ccco2)C1,"inconclusive: 3.26 µM [activator, partial curve, poor fit]"
15,O=C(Nc1cc(-c2nc3cc(Cl)ccc3o2)ccc1Cl)c1ccco1,"inconclusive: 11.6 µM [activator, partial curve]"
10,COc1ccc(-c2[nH]ncc2CN2CCC(OCc3ccccc3)CC2)c(F)c1,"inconclusive: 20.6 µM [activator, single point]"

# Further entries:

row,SMILES,Potency
1,OCC1(CCc2ccccc2)CCN(Cc2ccccc2Cl)CC1,"inconclusive: 18.4 µM [activator, partial curve, poor fit]"
2,Cn1c(CCN2CCOCC2)nc2cc(NC(=O)COc3ccc(Cl)cc3)ccc21,"inconclusive: 1.64 µM [falling, partial curve, poor fit]"
3,C=CCSc1ncc(C(=O)OCC)c(N)n1,"inconclusive: 3.66 µM [activator, partial curve, poor fit]"
4,CCOc1ccc(NC(=O)c2cnc3scc(C)n3c2=O)cc1,"inconclusive: 4.11 µM [activator, partial curve]"
5,CCC1C(c2ccccc2)=CCC(C(=O)O)C1C (stereo not drawn),"inconclusive: 13 µM [falling, partial curve, poor fit]"
6,COC(=O)c1sccc1N/N=C/c1ccc(OC)c(OC)c1OC,"inconclusive: 4.11 µM [activator, full curve]"
7,O=C1c2ccccc2S(=O)(=O)N1CC(O)Cn1ccc2ccccc21 (stereo not drawn),"inconclusive: 0.103 µM [activator, full curve, poor fit]"
8,COc1ccc(Nc2ncnc3sc(-c4ccccc4)cc23)cc1,"inconclusive: 4.11 µM [falling, single point]"
9,COc1ccc(-n2nc3c(c2NC(=O)c2ccco2)CS(=O)(=O)C3)cc1,"inconclusive: 3.66 µM [activator, full curve, poor fit]"
10,COc1cccc(CN(C)C(=O)c2cccc(S(=O)(=O)NCc3ccccc3)c2)c1OC,active: 7.31 µM
11,COC(=O)c1cccc(Cn2c(Cl)c(/C=N/Nc3ccccc3C)sc2=O)c1,inactive
12,O=C1c2ccccc2C(=O)N1c1cccc(=O)[nH]1,inactive
13,CC(C)(C)Nc1nc(C#N)nc(Nc2ccccc2)n1,inactive
14,NC(=S)N1OC[C@@H]2COc3ccc4ccccc4c3[C@@H]21,inactive
15,CCOc1ccc(CC(=O)Nc2nccs2)cc1,"inconclusive: 5.17 µM [activator, partial curve, poor fit]"
16,CC(=O)Nc1ccc(S(=O)(=O)N2CCN(C(=O)CCC3CCCC3)CC2)cc1,"inconclusive: 29.1 µM [falling, single point]"
17,COC(=O)c1sc2cnccc2c1N,"inconclusive: 7.31 µM [falling, partial curve]"
18,COc1cccc(CNC(=O)c2ccc3c(c2)c(C)c(C)n3Cc2ccccc2)c1,"inconclusive: 6.51 µM [activator, single point]"
19,COc1cc2nc(SCc3ccc(F)cc3)n(Cc3cccs3)c(=N)c2cc1OC,"inconclusive: 32.6 µM [falling, single point]"
20,CCOc1ccccc1N(CC)C(=O)Cn1ncc2c([nH]c3ccccc32)c1=O,inactive
21,Cn1c(-c2cc3c(C(F)(F)F)nn(C)c3s2)n[nH]c1=S,inactive
22,CC(=O)N1c2ccc(S(=O)(=O)N3CCC(C(=O)NCc4ccc(C)cc4)CC3)cc2CC1C (stereo not drawn),"inconclusive: 13 µM [falling, partial curve, poor fit]"
